# Laboratory results reported in patent US20250222065A1, “CYCLIC POLYPEPTIDE FOR THE TREATMENT OF PHA TYPE 1B” (priority 2015, published 2025).
# By UniProt entry, the sequences of proteins in these tests, tags left out. Where a name states a change or a piece, a line headed by the entry shows the natural chain unless it says otherwise.
# UniProt P51172: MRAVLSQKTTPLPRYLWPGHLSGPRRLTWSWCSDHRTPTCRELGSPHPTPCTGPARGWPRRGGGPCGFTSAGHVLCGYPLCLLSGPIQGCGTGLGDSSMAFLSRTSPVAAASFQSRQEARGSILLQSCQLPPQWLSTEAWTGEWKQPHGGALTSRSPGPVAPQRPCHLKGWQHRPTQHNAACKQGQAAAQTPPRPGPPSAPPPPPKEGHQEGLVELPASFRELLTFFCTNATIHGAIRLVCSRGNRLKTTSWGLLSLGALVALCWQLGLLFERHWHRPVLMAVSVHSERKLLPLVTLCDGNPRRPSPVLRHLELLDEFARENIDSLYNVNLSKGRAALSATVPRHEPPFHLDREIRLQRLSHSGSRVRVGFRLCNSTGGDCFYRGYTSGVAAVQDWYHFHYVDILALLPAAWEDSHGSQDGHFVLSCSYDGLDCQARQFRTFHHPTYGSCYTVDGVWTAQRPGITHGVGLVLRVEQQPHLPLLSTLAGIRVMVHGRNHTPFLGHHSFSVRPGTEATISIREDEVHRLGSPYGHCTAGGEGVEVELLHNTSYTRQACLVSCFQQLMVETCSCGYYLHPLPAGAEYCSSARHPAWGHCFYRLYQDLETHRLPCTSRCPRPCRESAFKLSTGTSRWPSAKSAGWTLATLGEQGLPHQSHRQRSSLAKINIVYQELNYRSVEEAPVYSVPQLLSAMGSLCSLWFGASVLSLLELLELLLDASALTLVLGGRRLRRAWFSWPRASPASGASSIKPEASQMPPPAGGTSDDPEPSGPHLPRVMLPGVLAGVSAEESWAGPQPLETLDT
# For at least one compound, name, drawing or mass did not settle the structure.
# Target: T1, δG71Sβγ-hENaC (Homo sapiens, UniProt P51168+P51170+P51172, G235S)
# T1 construct: expressed in transfected cells; host or cells: HEK-293
# T1 sequence (P51172 1-638 isoform P51172-1 G71S): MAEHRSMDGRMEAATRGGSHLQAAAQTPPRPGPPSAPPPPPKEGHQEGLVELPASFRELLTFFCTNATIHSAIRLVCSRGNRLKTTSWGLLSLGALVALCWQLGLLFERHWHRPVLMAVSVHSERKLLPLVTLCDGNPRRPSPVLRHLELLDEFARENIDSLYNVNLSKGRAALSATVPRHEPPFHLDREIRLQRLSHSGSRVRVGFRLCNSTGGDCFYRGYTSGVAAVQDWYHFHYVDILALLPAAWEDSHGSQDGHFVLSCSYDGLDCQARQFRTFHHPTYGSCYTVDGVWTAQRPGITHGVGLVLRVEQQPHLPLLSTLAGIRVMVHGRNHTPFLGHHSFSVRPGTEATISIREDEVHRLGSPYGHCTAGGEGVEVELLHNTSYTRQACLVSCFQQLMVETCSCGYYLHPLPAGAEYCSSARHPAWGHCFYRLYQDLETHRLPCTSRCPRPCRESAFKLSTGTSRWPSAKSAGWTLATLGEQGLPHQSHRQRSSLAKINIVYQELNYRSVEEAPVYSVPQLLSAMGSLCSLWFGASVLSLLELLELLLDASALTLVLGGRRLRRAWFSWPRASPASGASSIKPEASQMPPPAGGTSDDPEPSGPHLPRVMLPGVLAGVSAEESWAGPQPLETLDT
# T1 sequence (P51168 1-640): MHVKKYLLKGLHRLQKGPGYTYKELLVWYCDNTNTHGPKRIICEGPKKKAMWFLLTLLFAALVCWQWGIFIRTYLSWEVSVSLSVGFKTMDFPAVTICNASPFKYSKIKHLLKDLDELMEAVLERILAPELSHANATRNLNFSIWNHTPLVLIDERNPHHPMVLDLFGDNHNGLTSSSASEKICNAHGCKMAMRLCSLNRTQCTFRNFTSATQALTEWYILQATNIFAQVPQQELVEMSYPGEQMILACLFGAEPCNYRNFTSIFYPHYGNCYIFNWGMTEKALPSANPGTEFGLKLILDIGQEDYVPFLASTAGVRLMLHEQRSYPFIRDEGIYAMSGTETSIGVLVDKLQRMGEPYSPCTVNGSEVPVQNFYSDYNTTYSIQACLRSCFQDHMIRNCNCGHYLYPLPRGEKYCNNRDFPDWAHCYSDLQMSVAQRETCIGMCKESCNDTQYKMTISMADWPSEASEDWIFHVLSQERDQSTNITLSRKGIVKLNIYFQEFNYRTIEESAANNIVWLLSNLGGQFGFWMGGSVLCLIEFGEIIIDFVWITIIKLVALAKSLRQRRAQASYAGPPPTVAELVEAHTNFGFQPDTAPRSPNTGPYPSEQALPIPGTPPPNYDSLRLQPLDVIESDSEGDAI
# T1 sequence (P51170 1-649): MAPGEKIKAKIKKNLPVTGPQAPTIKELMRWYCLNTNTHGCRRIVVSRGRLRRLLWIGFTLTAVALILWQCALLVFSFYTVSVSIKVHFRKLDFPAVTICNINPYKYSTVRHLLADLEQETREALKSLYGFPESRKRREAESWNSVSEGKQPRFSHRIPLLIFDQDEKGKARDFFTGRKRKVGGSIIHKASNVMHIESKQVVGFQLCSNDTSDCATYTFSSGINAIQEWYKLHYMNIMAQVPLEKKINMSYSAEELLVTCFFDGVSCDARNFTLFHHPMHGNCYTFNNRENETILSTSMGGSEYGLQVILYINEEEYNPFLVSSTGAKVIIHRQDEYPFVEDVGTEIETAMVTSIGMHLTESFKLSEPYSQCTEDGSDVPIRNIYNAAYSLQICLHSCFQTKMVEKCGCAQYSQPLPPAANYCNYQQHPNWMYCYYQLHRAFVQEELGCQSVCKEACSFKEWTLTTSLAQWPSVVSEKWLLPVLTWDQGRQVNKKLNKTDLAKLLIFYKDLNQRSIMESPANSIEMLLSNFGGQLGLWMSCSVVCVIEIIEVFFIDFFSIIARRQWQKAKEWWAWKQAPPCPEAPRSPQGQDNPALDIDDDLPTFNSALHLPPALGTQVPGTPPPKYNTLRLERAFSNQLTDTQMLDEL
# Assay: Whole cell patch clamp, HEK-293 cells expressing mutant δG71Sβγ-hENaC
# Type: cell-based
# Settings: HEK-293, whole cell patch clamp; no-peptide current: loss-of-function
structure (smiles),measurement,value
C[C@@H]1NC(=O)CNC(=O)[C@H](CCC(=O)O)NC(=O)[C@@H]2CCCN2C(=O)[C@H]([C@@H](C)O)NC(=O)[C@H](CCC(=O)O)NC(=O)[C@H](CCCNC(=N)N)NC(=O)[C@H](CCC(N)=O)NC(=O)CNC(=O)[C@@H](N)CSSC[C@@H](C(=O)O)NC(=O)[C@H](Cc2ccc(O)cc2)NC(=O)[C@H](Cc2c[nH]c3ccccc23)NC(=O)[C@@H]2CCCN2C(=O)[C@H](CCCCN)NC(=O)[C@H](C)NC(=O)[C@H](CCC(=O)O)NC1=O [AP301],AP301 restored Na+ current,185.1 ± 21.2 pA
